This is an account of results in PMC8740778, “Translational Pharmacokinetic–Pharmacodynamic Modeling of NaV1.7 Inhibitor MK-2075 to Inform Human Efficacious Dose” (Frontiers in Pharmacology, 2021).

The structures appear in SMILES notation.

The assay has as its system BALB/c male mice. Put plainly: Mouse tail flick latency. Type of assay: in vivo. Conditions: total plasma concentration, sigmoidal Emax model, SC dosing, read-out: Mouse tail flick EC50, mean ± SE.

With `CN1CC[C@]23c4c5ccc(O)c4O[C@H]2[C@@H](O)C=C[C@H]3[C@H]1C5` [Morphine], the 50% effective concentration (EC50) was 140 ± 30 nM.

As a reminder, the EC50 is the concentration that produces a half-maximal response.
